Assay [1] concerns the target T1, recombinant B7-H3 (human) (UniProt Q5ZPR3).
T1 sequence: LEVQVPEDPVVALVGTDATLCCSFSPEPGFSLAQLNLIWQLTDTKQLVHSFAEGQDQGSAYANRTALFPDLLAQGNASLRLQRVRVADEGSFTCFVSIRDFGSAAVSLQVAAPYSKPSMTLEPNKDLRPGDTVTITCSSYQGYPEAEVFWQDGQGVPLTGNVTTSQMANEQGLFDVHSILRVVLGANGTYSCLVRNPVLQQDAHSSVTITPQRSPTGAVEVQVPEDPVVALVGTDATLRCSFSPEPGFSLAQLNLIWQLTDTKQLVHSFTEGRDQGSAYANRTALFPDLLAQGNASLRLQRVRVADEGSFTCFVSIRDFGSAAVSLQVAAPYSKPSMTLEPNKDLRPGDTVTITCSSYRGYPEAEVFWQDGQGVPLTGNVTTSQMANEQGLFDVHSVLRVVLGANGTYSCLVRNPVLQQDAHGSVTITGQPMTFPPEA
The experiment in a line: co-IP; NKL NP40 lysate incubated with recombinant B7-H3 for 1 h, then anti-human B7-H3 or anti-goat IgG 30 min at 4°C, Dynabeads Protein G overnight, western blot; only the target purified. Background: Immunoblotting shows a protein as a band on a membrane.

In assay [2] the target is T2, Halo-tagged B7-H3 (human) (UniProt Q5ZPR3).
T2 sequence: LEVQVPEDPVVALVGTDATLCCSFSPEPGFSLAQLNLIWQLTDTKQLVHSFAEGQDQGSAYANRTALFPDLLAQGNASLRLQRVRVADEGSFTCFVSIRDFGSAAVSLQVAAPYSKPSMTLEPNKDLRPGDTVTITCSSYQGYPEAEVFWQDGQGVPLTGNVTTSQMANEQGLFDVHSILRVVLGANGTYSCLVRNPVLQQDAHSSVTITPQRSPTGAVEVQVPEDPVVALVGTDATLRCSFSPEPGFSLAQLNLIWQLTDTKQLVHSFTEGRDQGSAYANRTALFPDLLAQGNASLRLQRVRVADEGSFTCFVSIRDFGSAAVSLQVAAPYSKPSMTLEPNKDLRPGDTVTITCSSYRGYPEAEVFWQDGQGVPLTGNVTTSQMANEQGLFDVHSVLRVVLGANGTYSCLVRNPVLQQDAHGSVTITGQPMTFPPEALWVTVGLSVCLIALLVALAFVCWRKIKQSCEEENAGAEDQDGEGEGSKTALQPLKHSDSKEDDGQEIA
The experiment in a line: pull-down; called co-IP by the paper; Halo-tagged B7-H3 from HEK293 NP40 lysate bound to Magne HaloTag beads overnight at 4°C, incubated with Jurkat cells, lysed in 100 mM octyl glucoside, washed, released with TEV protease, western blot; only the target purified.

Results are given in words; binding and its absence hold for the method and conditions named. In cells and extracts the contact can be indirect. Some results given as binding are weak or reduced against the parent protein; the word gives no strength. For some assays here: Tags and fused reporters may be left off the sequences shown.

This is an account of results in PMC9341442.

B1: angio-associated migratory cell protein (AAMP), endogenous (protein, UniProt Q13685 1-434)
chain: MESESESGAAADTPPLETLSFHGDEEIIEVVELDPGPPDPDDLAQEMEDVDFEEEEEEEGNEEGWVLEPQEGVVGSMEGPDDSEVTFALHSASVFCVSLDPKTNTLAVTGGEDDKAFVWRLSDGELLFECAGHKDSVTCAGFSHDSTLVATGDMSGLLKVWQVDTKEEVWSFEAGDLEWMEWHPRAPVLLAGTADGNTWMWKVPNGDCKTFQGPNCPATCGRVLPDGKRAVVGYEDGTIRIWDLKQGSPIHVLKGTEGHQGPLTCVAANQDGSLILTGSVDCQAKLVSATTGKVVGVFRPETVASQPSLGEGEESESNSVESLGFCSVMPLAAVGYLDGTLAIYDLATQTLRHQCQHQSGIVQLLWEAGTAVVYTCSLDGIVRLWDARTGRLLTDYRGHTAEILDFALSKDASLVVTTSGDHKAKVFCVQRPDR
In the case of B1, the binding entry in assay [1] and in assay [2] was “binds” throughout.
